Measurements from article PMC4673198.
Results are given in words; binding and its absence hold for the method and conditions named. Binding seen in cells or lysates may run through a third protein. These calls come from enrichment with a bait or labelling near it, and not all partners need be listed.

Chains of the proteins cited; added tags and fusions are not shown.
UniProt O43474: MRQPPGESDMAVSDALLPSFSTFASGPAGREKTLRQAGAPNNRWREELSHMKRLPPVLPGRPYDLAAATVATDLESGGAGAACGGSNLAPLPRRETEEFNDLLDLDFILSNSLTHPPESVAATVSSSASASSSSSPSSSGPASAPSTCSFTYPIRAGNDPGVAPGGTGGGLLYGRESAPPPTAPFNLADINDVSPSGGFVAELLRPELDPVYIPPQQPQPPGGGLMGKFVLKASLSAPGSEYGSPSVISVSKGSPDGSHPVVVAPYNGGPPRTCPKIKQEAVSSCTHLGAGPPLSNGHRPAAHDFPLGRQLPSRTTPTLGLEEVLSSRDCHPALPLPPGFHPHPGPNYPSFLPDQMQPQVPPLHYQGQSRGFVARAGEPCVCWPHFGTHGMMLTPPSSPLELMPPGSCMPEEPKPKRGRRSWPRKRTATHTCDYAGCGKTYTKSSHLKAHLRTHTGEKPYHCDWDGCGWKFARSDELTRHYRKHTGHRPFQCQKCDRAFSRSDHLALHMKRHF

Molecular target: Flag-KLF4 (UniProt O43474)
Assay: affinity purification with mass spectrometry; HepG2 cells infected with adenovirus expressing Flag-KLF4 or empty vector for 36 hr; NETN lysis buffer; anti-FLAG M2 affinity resin overnight at 4°C; eluted with 3 x Flag-peptide; SDS-PAGE, MS/MS

binding: binds
Substance: SKP1, endogenous in HepG2 (from UniProt P63208 1-163)
